# B1: DNER (protein, UniProt Q8NFT8 35-737, looked up)
# Delta and Notch-like …: NPVPAAPLSAPGPCAAQPCRNGGVCTSRPEPDPQHPAPAGEPGYSCTCPAGISGANCQLVADPCASNPCHHGNCSSSSSSSSDGYLCICNEGYEGPNCEQALPSLPATGWTESMAPRQLQPVPATQEPDKILPRSQATVTLPTWQPKTGQKVVEMKWDQVEVIPDIACGNASSNSSAGGRLVSFEVPQNTSVKIRQDATASLILLWKVTATGFQQCSLIDGRSVTPLQASGGLVLLEEMLALGNNHFIGFVNDSVTKSIVALRLTLVVKVSTCVPGESHANDLECSGKGKCTTKPSEATFSCTCEEQYVGTFCEEYDACQRKPCQNNASCIDANEKQDGSNFTCVCLPGYTGELCQSKIDYCILDPCRNGATCISSLSGFTCQCPEGYFGSACEEKVDPCASSPCQNNGTCYVDGVHFTCNCSPGFTGPTCAQLIDFCALSPCAHGTCRSVGTSYKCLCDPGYHGLYCEEEYNECLSAPCLNAATCRDLVNGYECVCLAEYKGTHCELYKDPCANVSCLNGATCDSDGLNGTCICAPGFTGEECDIDINECDSNPCHHGGSCLDQPNGYNCHCPHGWVGANCEIHLQWKSGHMAESLTNMPRHSLYIIIGALCVAFILMLIILIVGICRISRIEYQGSSRPAYEEFYNCRSIDSEFSNAIASIRHARFGKKSRPAMYDVSPIAYEDYSPDDKPLVTLIKTKDL
# B2: PAM (protein, UniProt P19021 31-973, looked up)
# Peptidyl-glycine …: FKETTRPFSNECLGTTRPVVPIDSSDFALDIRMPGVTPKQSDTYFCMSMRIPVDEEAFVIDFKPRASMDTVHHMLLFGCNMPSSTGSYWFCDEGTCTDKANILYAWARNAPPTRLPKGVGFRVGGETGSKYFVLQVHYGDISAFRDNNKDCSGVSLHLTRLPQPLIAGMYLMMSVDTVIPAGEKVVNSDISCHYKNYPMHVFAYRVHTHHLGKVVSGYRVRNGQWTLIGRQSPQLPQAFYPVGHPVDVSFGDLLAARCVFTGEGRTEATHIGGTSSDEMCNLYIMYYMEAKHAVSFMTCTQNVAPDMFRTIPPEANIPIPVKSDMVMMHEHHKETEYKDKIPLLQQPKREEEEVLDQGDFYSLLSKLLGEREDVVHVHKYNPTEKAESESDLVAEIANVVQKKDLGRSDAREGAEHERGNAILVRDRIHKFHRLVSTLRPPESRVFSLQQPPPGEGTWEPEHTGDFHMEEALDWPGVYLLPGQVSGVALDPKNNLVIFHRGDHVWDGNSFDSKFVYQQIGLGPIEEDTILVIDPNNAAVLQSSGKNLFYLPHGLSIDKDGNYWVTDVALHQVFKLDPNNKEGPVLILGRSMQPGSDQNHFCQPTDVAVDPGTGAIYVSDGYCNSRIVQFSPSGKFITQWGEESSGSSPLPGQFTVPHSLALVPLLGQLCVADRENGRIQCFKTDTKEFVREIKHSSFGRNVFAISYIPGLLFAVNGKPHFGDQEPVQGFVMNFSNGEIIDIFKPVRKHFDMPHDIVASEDGTVYIGDAHTNTVWKFTLTEKLEHRSVKKAGIEVQEIKEAEAVVETKMENKPTSSELQKMQEKQKLIKEPGSGVPVVLITTLLVIPVVVLLAIAIFIRWKKSRAFGDSEHKLETSSGRVLGRFRGKGSGGLNLGNFFASRKGYSRKGFDRLSTEGSDQEKEDDGSESEEEYSAPLPALAPSSS
# B3: KLK10 (protein, UniProt O43240 31-276, looked up)
# Kallikrein-10: AEAALLPQNDTRLDPEAYGSPCARGSQPWQVSLFNGLSFHCAGVLVDQSWVLTAAHCGNKPLWARVGDDHLLLLQGEQLRRTTRSVVHPKYHQGSGPILPRRTDEHDLMLLKLARPVVLGPRVRALQLPYRCAQPGDQCQVAGWGTTAARRVKYNKGLTCSSITILSPKECEVFYPGVVTNNMICAGLDRGQDPCQSDSGGPLVCDETLQGILSWGVYPCGSAQHPAVYTQICKYMSWINKVIRSN
# B4: SIRPB1 (protein, UniProt O00241 30-398, looked up)
# Signal-regulatory protein …: EDELQVIQPEKSVSVAAGESATLRCAMTSLIPVGPIMWFRGAGAGRELIYNQKEGHFPRVTTVSELTKRNNLDFSISISNITPADAGTYYCVKFRKGSPDDVEFKSGAGTELSVRAKPSAPVVSGPAVRATPEHTVSFTCESHGFSPRDITLKWFKNGNELSDFQTNVDPAGDSVSYSIHSTARVVLTRGDVHSQVICEIAHITLQGDPLRGTANLSEAIRVPPTLEVTQQPMRAENQANVTCQVSNFYPRGLQLTWLENGNVSRTETASTLIENKDGTYNWMSWLLVNTCAHRDDVVLTCQVEHDGQQAVSKSYALEISAHQKEHGSDITHEAALAPTAPLLVALLLGPKLLLVVGVSAIYICWKQKA
# B5: LAIR1 (protein, UniProt Q6GTX8 22-287, looked up)
# Leukocyte-associated …: QEEDLPRPSISAEPGTVIPLGSHVTFVCRGPVGVQTFRLERDSRSTYNDTEDVSQASPSESEARFRIDSVREGNAGLYRCIYYKPPKWSEQSDYLELLVKESSGGPDSPDTEPGSSAGPTQRPSDNSHNEHAPASQGLKAEHLYILIGVSVVFLFCLLLLVLFCLHRQNQIKQGPPRSKDEEQKPQQRPDLAVDVLERTADKATVNGLPEKDRETDTSALAAGSSQEVTYAQLDHWALTQRTARAVSPQSTKPMAESITYAAVARH
# B6: CLEC7A (protein, UniProt Q9BXN2 1-247, looked up)
# C-type lectin domain family 7 …: MEYHPDLENLDEDGYTQLHFDSQSNTRIAVVSEKGSCAASPPWRLIAVILGILCLVILVIAVVLGTMAIWRSNSGSNTLENGYFLSRNKENHSQPTQSSLEDSVTPTKAVKTTGVLSSPCPPNWIIYEKSCYLFSMSLNSWDGSKRQCWQLGSNLLKIDSSNELGFIVKQVSSQPDNSFWIGLSRPQTEVPWLWEDGSTFSSNLFQIRTTATQENPSPNCVWIHVSVIYDQLCSVPSYSICEKKFSM
# B7: RTN4R (protein, UniProt Q9BZR6 27-447, looked up)
# Reticulon-4 receptor: CPGACVCYNEPKVTTSCPQQGLQAVPVGIPAASQRIFLHGNRISHVPAASFRACRNLTILWLHSNVLARIDAAAFTGLALLEQLDLSDNAQLRSVDPATFHGLGRLHTLHLDRCGLQELGPGLFRGLAALQYLYLQDNALQALPDDTFRDLGNLTHLFLHGNRISSVPERAFRGLHSLDRLLLHQNRVAHVHPHAFRDLGRLMTLYLFANNLSALPTEALAPLRALQYLRLNDNPWVCDCRARPLWAWLQKFRGSSSEVPCSLPQRLAGRDLKRLAANDLQGCAVATGPYHPIWTGRATDEEPLGLPKCCQPDAADKASVLEPGRPASAGNALKGRVPPGDSPPGNGSGPRHINDSPFGTLPGSAEPPLTAVRPEGSEPPGFPTSGPRRRPGCSRKNRTRSHCRLGQAGSGGGGTGDSEGS
# B8: PILRA (protein, UniProt Q9UKJ1 20-303, looked up)
# Paired immunoglobulin-like …: QPSGSTGSGPSYLYGVTQPKHLSASMGGSVEIPFSFYYPWELATAPDVRISWRRGHFHRQSFYSTRPPSIHKDYVNRLFLNWTEGQKSGFLRISNLQKQDQSVYFCRVELDTRSSGRQQWQSIEGTKLSITQAVTTTTQRPSSMTTTWRLSSTTTTTGLRVTQGKRRSDSWHISLETAVGVAVAVTVLGIMILGLICLLRWRRRKGQQRTKATTPAREPFQNTEEPYENIRNEGQNTDPKLNPKDDGIVYASLALSSSTSPRAPPSHRPLKSPQNETLYSVLKA
# B9: CCL17 (protein, UniProt Q92583 24-94, looked up)
# C-C motif chemokine 17: ARGTNVGRECCLEYFKGAIPLRKLKTWYQTSEDCSRDAIVFVTVQGRAICSDPNNKRVKNAVKYLQSLERS
# System: plasma proteins
# Assay: OLINK proximity extension assay of baseline plasma, CR compared to PD/Death, updated classification, Example 5 (Table 11)
# Format: in vivo, human
# Details: itacitinib 200 or 300 mg QD plus corticosteroids, response at day 28
Molecule,"Fold Change, Up-Regulated in CR Compared to PD/Death","Fold Change, Down-Regulated in CR Compared to PD/Death"
B1,1.4054,
B2,1.3347,
B3,1.2844,
B4,,−1.9684
B5,,−1.7352
B6,,−1.7189
B7,,−1.6966
B8,,−1.5248
B9,6.4545,
